Laboratory results from PubChem BioAssay AID1347076 (National Center for Advancing Translational Sciences (NCATS), 2019).
The whole screen tested about 400,000 compounds, of which about 13,000 (3.2%) were called active. The inconclusive results got no clear call from the source; some entries with a clear call stand among them for comparison. Calls come from the whole dose curve; as a rule, active = well fitted cell-killing curve with a large enough effect; inconclusive = small, poorly fitted or top-dose-only effect, or effect the other way; inactive = flat fitted curve, though single readings scatter. Potencies of inconclusive entries are doubtful fits and often do not repeat.

Experiment: qHTS assay for MDR1-selective chemotherapeutics: Primary screen using the drug-selected MDR subline cells KB-V1; note: nearly all actives have a fitted effect of over 60% in size
Conditions: KB-V1 MDR cells viability, CellTiter-Glo, 72 h; activity change, negative = cytotoxicity: at 46.1 µM (top of the series)
Outline: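 Cytotoxicity toward P-gp-expressing KB-V1 cells was determined as loss of CellTiter-Glo luminescence after 72 h at 37 degrees C. Compounds were tested in quantitative HTS format across a concentration range, with curves fitted to normalized data.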
% is set by controls: 0 for no effect and ±100 for the full control effect; potency is the fitted concentration of half-maximal effect.

| SMILES | Potency | activity change, negative = cytotoxicity |
| --- | --- | --- |
| N#CCSc1nc2ccccc2o1 | inconclusive: 14.6 µM [rising, partial curve, poor fit] |  |
| C=CCn1c(SCC(=O)N2CCN(c3ccc(F)cc3)CC2)nnc1-c1ccco1 | inconclusive: 11.6 µM [cytotoxic, partial curve] |  |
| COc1ccc(/C=C(\C#N)C(=O)NCCc2ccccc2)cc1OCc1ccccc1 | inconclusive: 8.2 µM [cytotoxic, partial curve] |  |
| O=C(NNC(=O)c1ccccc1O)c1ccc(Cl)cc1 | inconclusive: 7.31 µM [cytotoxic, partial curve] |  |
| Cc1ccc(CN2CCC(CNC(=O)Nc3c(C)cccc3C)C2)cc1 (centres undefined) |  | inactive: -1.07% |
| COc1ccc2c(c1)C(=O)C1NC(=O)NC(=O)C1(Br)N2 (centres undefined) | inconclusive: 29.1 µM [rising, single point] |  |
| NC(=O)c1ccsc1NC(=O)COc1ccccc1 | active: 13 µM |  |
| O=C(c1cccc2ccccc12)C1CCCN(C(=O)CCN2CCCO2)C1 (centres undefined) | inconclusive: 20.6 µM [cytotoxic, single point] |  |
| COc1ccc(C(=O)c2ccc(Br)cc2)c2ccccc12 | active: 18.4 µM |  |
| Cc1ccccc1OCC(=O)Nc1ccc(N2CCN(S(C)(=O)=O)CC2)cc1 | active: 3.66 µM |  |
| CC(C)(C)OC(=O)NCCCCCNC(=O)c1nc[nH]c1C(=O)N1CCN(c2ccccc2)CC1 | inconclusive: 10.3 µM [cytotoxic, partial curve] |  |
| COCCCn1c(=O)c2ccccc2n(CC(=O)NCCC2=CCCCC2)c1=O | inconclusive: 5.17 µM [cytotoxic, partial curve] |  |
| O=C(Nc1ncc(Cc2ccc(SC(F)F)cc2)s1)c1ccc(OC(F)F)cc1 | active: 0.326 µM |  |
| Cc1cc2cc(CN(Cc3ccco3)S(=O)(=O)c3c(C)ccc4nsnc34)c(=O)[nH]c2cc1C | active: 1.64 µM |  |
| CC(C)Nc1ncnc2ccc(Br)cc12 | inconclusive: 23.1 µM [cytotoxic, partial curve, poor fit] |  |
| N#CCNC(=O)c1cccn1-c1ncc(C(F)(F)F)cc1Cl | inconclusive: 23.1 µM [rising, single point] |  |
| O=C(CCC1N=C2c3ccccc3N=C(SCc3cccc(Cl)c3)N2C1=O)NCc1cccs1 (centres undefined) |  | inactive: 2.53% |
| CCOC(=O)[C@H]1Nc2ccc(Cl)cc2[C@@H]2[C@H]1C1CC(c3ccccc31)N2C(=O)OCc1ccccc1 (some centres undefined) | inconclusive: 23.1 µM [cytotoxic, single point] |  |
| COc1ccc(CCN2CC(C(=O)Nc3nnc(Cc4ccccc4)s3)CC2=O)cc1OC (centres undefined) | inconclusive: 0.731 µM [rising, full curve, poor fit] |  |
| CSc1nc2ccccc2cc1/C=C(\C#N)c1ccccc1 | inconclusive: 29.1 µM [cytotoxic, single point] |  |
| COc1cc(C(=O)NCCSc2c(-c3ccccc3)[nH]c3ccccc23)cc(OC)c1OC | inconclusive: 18.4 µM [cytotoxic, single point] |  |
| Clc1ccc(-c2ccc(/C=N/Nc3cc(N4CCOCC4)nc(N4CCOCC4)n3)o2)cc1 | inconclusive: 16.4 µM [cytotoxic, single point] |  |
| C[C@H](CO)N1C[C@H](C)[C@@H](CN(C)C(=O)Nc2ccccc2)Oc2ccc(NC(=O)Cn3cnnn3)cc2C1=O |  | inactive: 0.0002% |

| SMILES | Potency | activity change, negative = cytotoxicity |
| --- | --- | --- |
| c1ccc(-c2nc(NCCCn3ccnc3)c3ccccc3n2)cc1 | inconclusive: 14.6 µM [cytotoxic, partial curve, poor fit] |  |
| CC(C)(C)c1ccc(OCC(=O)Nc2c(C(=O)c3ccc(F)cc3)oc3ccccc23)cc1 | inconclusive: 18.4 µM [rising, single point] |  |
| Cc1ccc(-c2cc(C(=O)N(C)Cc3cnn(C)c3C)c3cc(Br)ccc3n2)cc1 | inconclusive: 1.46 µM [cytotoxic, partial curve, poor fit] |  |
| CC(Cc1n[nH]c(=S)n1N)c1ccccc1 (centres undefined) |  | inactive: 29.7% |
| Cc1ccccc1-c1nc(CS(=O)(=O)CC(=O)NCCN2CCOCC2)c(C)o1 | inconclusive: 7.31 µM [rising, partial curve] |  |
| CCSc1nnc(NC(=O)CN(C)S(=O)(=O)c2ccc(F)cc2)s1 | inconclusive: 20.6 µM [cytotoxic, partial curve] |  |
| Cc1ccc(Cl)cc1NC(=O)C1CCCN(S(=O)(=O)c2c(C)noc2/C=C/N(C)C)C1 (centres undefined) |  | inactive: 6.15% |
| CC1(C)Oc2ccc(NC(=O)C3COc4ccccc4O3)cc2O1 (centres undefined) |  | inactive: -14.6% |
| CC(C)NC(=O)c1ccc(CN2CCc3ccccc3C2)cc1 | inconclusive: 11.6 µM [rising, partial curve] |  |
| CCOC(=O)N1CCN(C(=O)c2cnn3c(C)c(Cc4ccc(C)cc4)c(C)nc23)CC1 | active: 3.66 µM |  |
| Cc1onc(-c2c(Cl)cccc2Cl)c1C(=O)NC1C(=O)N2C1SC(C)(C)C2C(=O)O (centres undefined) | inconclusive: 29.1 µM [rising, single point] |  |
| COc1ccccc1N1CCN(C(=O)CCNS(=O)(=O)c2cc(Br)cnc2N)CC1 |  | inactive: -10.1% |
| CCOC(=O)[C@]12CCC=C1N(Cc1ccc3c(c1)OCO3)C(=O)[C@H](CC(=O)NCC13CC4CC(CC(C4)C1)C3)C2 | active: 23.1 µM |  |
| COc1ccc(-c2cc(C(F)F)n3ncc(C(=O)N4CCc5ccccc5C4)c3n2)cc1 | inconclusive: 20.6 µM [cytotoxic, single point] |  |
| Cc1ccc(NC(=O)C2C3CC4OC(=O)C2C4C3)cc1Cl (centres undefined) |  | inactive: -10.7% |
| O=S(=O)(Nc1ccc(Cl)cc1)c1ccc(N2CCOCC2)c(NC(=S)NC2CC2)c1 |  | inactive: -11.1% |
| CC[C@H](NC(=O)/C=C/[C@H]1O[C@@H](n2cc(C)c(=O)[nH]c2=O)C[C@@H]1O)c1ccccc1 |  | inactive: 0.816% |
| CCCC1S/C(=N/N=C/c2ccc(C)cc2)N(Cc2ccc(OC)cc2)C1=O (centres undefined) | active: 13 µM |  |
| Cc1cc(C)c2[nH]c(=S)cc(C)c2c1 |  | inactive: -10.6% |
| C[C@H](NC(=O)c1cc2cc(Cl)ccc2n1C)C(=O)N[C@@H](Cc1ccccc1)C(=O)O |  | inactive: -12.2% |
| COc1ccc2[nH]c(=O)c(CN(Cc3ccccc3OC)Cc3nnnn3CC3CCCO3)cc2c1 (centres undefined) | inconclusive: 25.9 µM [cytotoxic, single point] |  |
| Clc1cccc(Cl)c1COn1nnc2ccccc21 | inconclusive: 29.1 µM [cytotoxic, single point] |  |
| CN(Cc1ccccc1)C(=O)CSc1nc2c(c(C(F)(F)F)n1)CCc1ccccc1-2 | inconclusive: 11.6 µM [cytotoxic, partial curve, poor fit] |  |

Some of the entries so far, field by field.
CC(C)(C)c1ccc(OCC(=O)Nc2c(C(=O)c3ccc(F)cc3)oc3ccccc23)cc1
  Potency: inconclusive: 18.4 µM [rising, single point]
Cc1onc(-c2c(Cl)cccc2Cl)c1C(=O)NC1C(=O)N2C1SC(C)(C)C2C(=O)O (centres undefined)
  Potency: inconclusive: 29.1 µM [rising, single point]
COc1ccc(-c2cc(C(F)F)n3ncc(C(=O)N4CCc5ccccc5C4)c3n2)cc1
  Potency: inconclusive: 20.6 µM [cytotoxic, single point]

More entries:

| SMILES | Potency | activity change, negative = cytotoxicity |
| --- | --- | --- |
| NC(=S)NN=C1c2cc(OCCN3CCOCC3)ccc2-c2ccc(OCCN3CCOCC3)cc21 | inconclusive: 29.1 µM [cytotoxic, single point] |  |
| COc1ccc(NC(=O)CN2C(=O)NC(C)(c3ccc(C)cc3)C2=O)c([N+](=O)[O-])c1 (centres undefined) | inconclusive: 9.2 µM [cytotoxic, partial curve] |  |
| CCCNC(=O)COc1coc(CN2CCN(c3ccccc3OC)CC2)cc1=O | inconclusive: 2.06 µM [rising, partial curve, poor fit] |  |
| O=C(NCc1ccc(F)cc1)C1CCN(S(=O)(=O)c2ccc3c(c2)OCCCO3)CC1 | inconclusive: 20.6 µM [cytotoxic, single point] |  |
| O=C(c1ccc2c(=O)n3c(nc2c1)CCCCC3)N1CCN(C(c2ccccc2)c2ccccc2)CC1 | inconclusive: 11.6 µM [cytotoxic, partial curve, poor fit] |  |
| CCN(C(=O)COC(=O)Cc1cccc2ccccc12)C1CCS(=O)(=O)C1 (centres undefined) | inconclusive: 4.61 µM [rising, partial curve, poor fit] |  |
| O=C(c1cc2ccccc2cc1O)N1CCCC(C(F)(F)F)C1 (centres undefined) |  | inactive: -7.26% |
| CC(=O)N1CCc2cc(S(=O)(=O)CCC(=O)N3CCN(c4cc(C)ccc4C)CC3)ccc21 |  | inactive: 6.69% |
| CC(=O)N1CCN(C(=O)c2ccc(-c3cccc(C(F)(F)F)c3)o2)CC1 | inconclusive: 23.1 µM [cytotoxic, single point] |  |
| O=C(Nc1cc(S(=O)(=O)Nc2ccc(Cl)cc2)ccc1N1CCCCC1)c1ccc(F)cc1Cl | inconclusive: 29.1 µM [cytotoxic, single point] |  |
| CC1CN(C(=O)COC(=O)/C=C/c2cccc([N+](=O)[O-])c2)CC(C)O1 (centres undefined) | inconclusive: 16.4 µM [cytotoxic, partial curve, poor fit] |  |
| Cn1nccc1NC(=O)Nc1ccccc1 |  | inactive: 4.38% |
| O=C(COC(=O)CCc1ccc(S(=O)(=O)N2CCOCC2)cc1)Nc1ccccc1OC(F)F |  | inconclusive: 32.4% |
| COc1cccc(C2C(C(C)=O)=C(O)C(=O)N2CCc2c[nH]c3ccccc23)c1 (centres undefined) |  | inactive: 16.6% |
| Cc1ccc(C(=O)NC=C(Cl)Cl)cc1 |  | inactive: 11% |
| CCN(CC)C(=O)c1cnn(-c2ccccc2)c1NC(=O)c1ccccc1F | active: 4.61 µM |  |
| Cc1c(CCC(=O)NCCc2ccccc2F)c(=O)oc2cc(O)ccc12 |  | inactive: 0% |
| CC(=O)/C(=N/Nc1ccccc1)N1CCOCC1 |  | inactive: -25.2% |
| COc1ccc2c(c1)C(=O)N(CCc1ccc(S(=O)(=O)NC(=O)NC3CCCCC3)cc1)C(=O)C2(C)C | inconclusive: 0.164 µM [cytotoxic, full curve] |  |
| COC(=O)C(C)N1C(=O)S/C(=C/c2cc(C)n(C(C)C)c2C)C1=O (centres undefined) | active: 4.11 µM |  |
| NC(=O)CCN1CCN(Cc2nc(C(c3ccccc3)c3ccccc3)no2)CC1 |  | inconclusive: 2.7% |
| CCn1c(CNc2ccc(F)cc2)nnc1SCC(=O)Nc1ccc(OC)cc1OC | inconclusive: 29.1 µM [cytotoxic, single point] |  |
| [O-]C(=C(C(=S)Nc1cccc2ccccc12)[n+]1cccc(CO)c1)c1ccc(Cl)s1 | inconclusive: 20.6 µM [cytotoxic, single point] |  |

Two of the compounds above, with bars between the fields.
SMILES | Potency | activity change, negative = cytotoxicity
O=C(NCc1ccc(F)cc1)C1CCN(S(=O)(=O)c2ccc3c(c2)OCCCO3)CC1 | inconclusive: 20.6 µM [cytotoxic, single point] | 
O=C(c1ccc2c(=O)n3c(nc2c1)CCCCC3)N1CCN(C(c2ccccc2)c2ccccc2)CC1 | inconclusive: 11.6 µM [cytotoxic, partial curve, poor fit] | 
